Experimental data taken from PubChem BioAssay AID540276 (National Center for Advancing Translational Sciences (NCATS), 2011).
Several values for one entry are separate records, joined by “and”; a condition that tells them apart may be missing. Equal values may be shown once. The whole screen tested about 300,000 compounds, of which about 5,400 (1.8%) were called active. The shares of active, inactive and inconclusive entries below differ from those in the screen. Calls come from the whole dose curve; tested in HEK293 cells. Potencies of inconclusive entries are doubtful fits and often do not repeat.

Experiment: qHTS for inhibitors of binding or entry into cells for Marburg Virus
Settings: Marburg virus pseudotyped entry inhibition, cell reporter; series mostly up to 37.8 µM
Potency is the fitted concentration of half-maximal effect.

Row | Compound | Potency
1 | COCCNc1oc(-c2cccs2)nc1S(=O)(=O)c1ccc(C)cc1 | inconclusive: 31.6 µM [inhibitor, single point]
2 | O=C(c1cccc(S(=O)(=O)N2CCOCC2)c1)N1CCCc2ccccc21 | inactive
3 | O=C(CSc1nnc(-c2ccc(Br)cc2)o1)Nc1cccc(C(=O)O)c1 | inconclusive: 1.12 µM [inhibitor, full curve, poor fit]
4 | O=C(NN1C(=O)/C(=C/C=C/c2ccco2)SC1=S)c1ccccc1O | inactive
5 | CC(=O)N1CCN(c2ccc(NCc3ccc4c(c3)OCO4)cc2)CC1 | inconclusive: 12.6 µM [activator, single point]
6 | Cc1ccccc1NC(=O)Cn1c(=O)n(Cc2ccccc2)c(=O)c2sc3ccccc3c21 | inconclusive: 7.08 µM [inhibitor, full curve, poor fit]
7 | O=C(O)CCCCCN1C(=O)/C(=C/c2ccncc2)SC1=S | inconclusive: 35.5 µM [inhibitor, single point]
8 | O=C(N/N=C/c1ccc([N+](=O)[O-])o1)C1CCCC1 | inconclusive: 35.5 µM [inhibitor, single point]
9 | CC1(C)Oc2ccc3ccc(=O)oc3c2-c2cnoc21 | inactive
10 | O=C(NC1CCCC1)c1cc(-c2ccc(Cl)cc2)on1 | inconclusive: 0.631 µM [activator, full curve, poor fit]
11 | COc1ccc(CC(C)N2CCN(Cc3ccccc3)CC2)c(OC)c1 (configuration not stated) | inconclusive: 13 µM [inhibitor, single point]
12 | Cc1ccccc1C(=O)Nc1nnc(S(=O)(=O)N(C)Cc2ccco2)s1 | inactive
13 | NC(=O)c1ccc(NC(=O)COC(=O)c2c3c(nc4ccccc24)/C(=C\c2cccs2)CCC3)cc1 | inconclusive: 16.4 µM [inhibitor, partial curve, poor fit]
14 | COc1ccccc1C(=O)C1CCCN(Cc2cccc3nccnc23)C1 (configuration not stated) | inconclusive: 25.1 µM [inhibitor, single point]
15 | O=C(O)c1ccc2cccnc2c1O | inactive
16 | CCOC(=O)c1ccc(N2C(=O)c3n[nH]c(C)c3C2c2ccc(OCC)cc2)cc1 (configuration not stated) | inconclusive: 35.5 µM [inhibitor, single point]
17 | COc1cccc(NC(=O)c2oc3ccccc3c2NC(=O)C2CC2)c1 | inconclusive: 7.3 µM [inhibitor, single point]
18 | COc1ccc(NCC(=O)N/N=C/c2c(C)nn(Cc3ccccc3)c2Cl)cc1 | inconclusive: 35.5 µM [inhibitor, partial curve, poor fit]
19 | CCN(CCNC(=O)C1CCN(Cc2nc(-c3cccc(Cl)c3)oc2C)CC1)c1ccccc1 | inactive and inconclusive: 22.4 µM [inhibitor, single point]
20 | CCNC(=O)c1ccccc1SCc1ccccc1 | inconclusive: 1.78 µM [inhibitor, partial curve, poor fit]
21 | Cn1c(=O)c(=O)n(C)c2cc(S(=O)(=O)NCCOc3ccccc3Cl)ccc21 | inconclusive: 3.98 µM [inhibitor, single point]
22 | Cc1cc(-n2c(C)cc(C(=O)CSc3ncnc4ccccc34)c2C)no1 | active: 9.2 µM
23 | COc1ccc(Br)cc1-c1noc(-c2ccccc2)n1 | inactive

Grouped by structure, those above with a carbonyl joined to an NH by a bond outside any ring (11)
Row | Compound | Potency
3 | O=C(CSc1nnc(-c2ccc(Br)cc2)o1)Nc1cccc(C(=O)O)c1 | inconclusive: 1.12 µM [inhibitor, full curve, poor fit]
4 | O=C(NN1C(=O)/C(=C/C=C/c2ccco2)SC1=S)c1ccccc1O | inactive
6 | Cc1ccccc1NC(=O)Cn1c(=O)n(Cc2ccccc2)c(=O)c2sc3ccccc3c21 | inconclusive: 7.08 µM [inhibitor, full curve, poor fit]
8 | O=C(N/N=C/c1ccc([N+](=O)[O-])o1)C1CCCC1 | inconclusive: 35.5 µM [inhibitor, single point]
10 | O=C(NC1CCCC1)c1cc(-c2ccc(Cl)cc2)on1 | inconclusive: 0.631 µM [activator, full curve, poor fit]
12 | Cc1ccccc1C(=O)Nc1nnc(S(=O)(=O)N(C)Cc2ccco2)s1 | inactive
13 | NC(=O)c1ccc(NC(=O)COC(=O)c2c3c(nc4ccccc24)/C(=C\c2cccs2)CCC3)cc1 | inconclusive: 16.4 µM [inhibitor, partial curve, poor fit]
17 | COc1cccc(NC(=O)c2oc3ccccc3c2NC(=O)C2CC2)c1 | inconclusive: 7.3 µM [inhibitor, single point]
18 | COc1ccc(NCC(=O)N/N=C/c2c(C)nn(Cc3ccccc3)c2Cl)cc1 | inconclusive: 35.5 µM [inhibitor, partial curve, poor fit]
19 | CCN(CCNC(=O)C1CCN(Cc2nc(-c3cccc(Cl)c3)oc2C)CC1)c1ccccc1 | inactive and inconclusive: 22.4 µM [inhibitor, single point]
20 | CCNC(=O)c1ccccc1SCc1ccccc1 | inconclusive: 1.78 µM [inhibitor, partial curve, poor fit]

(continued)

Row | Compound | Potency
24 | O=C(NCc1ccc2c(c1)OCO2)C1CCCN1C(=O)Nc1ccccc1 (configuration not stated) | inactive
25 | CN(C)CCCN(C(=O)c1ccc(S(=O)(=O)N(C)C2CCCCC2)cc1)c1nc2ccc(F)cc2s1 | inconclusive: 12.6 µM [inhibitor, partial curve, poor fit]
26 | Cc1ccc(Oc2ccc(C=O)cn2)cc1 | inconclusive: 1 µM [activator, partial curve, poor fit]
27 | COc1ccccc1NC(=O)Nc1ccccc1Br | inactive
28 | CS(=O)(=O)N(CC(=O)N1CCCC1)c1ccc(OCc2ccccc2)cc1 | inconclusive: 16.4 µM [inhibitor, single point]
29 | COc1c([N+](=O)[O-])c(=O)oc2ccccc12 | inactive
30 | CCOC(=O)c1ccc(N=c2sc(C(=O)OC)cc(=O)n2Cc2ccco2)cc1 | inconclusive: 20.6 µM [inhibitor, single point]
31 | O=S1(=O)CC/C(=N\Nc2ccc(F)cc2)c2ccsc21 | inconclusive: 35.5 µM [inhibitor, single point]
32 | CC(=O)OC[C@H]1O[C@H](c2cc(C)cc(C)c2)C=C[C@@H]1OC(C)=O | inconclusive: 1.19 µM [activator, single point]
33 | Cc1ccc(CNC(=O)c2ccc(N(C)S(=O)(=O)c3ccccc3)cc2)cc1 | inconclusive: 35.5 µM [inhibitor, single point]
34 | Cc1noc2ncnc(Sc3ccc(Cl)cc3)c12 | inconclusive: 35.5 µM [inhibitor, single point]
35 | C(=N\Nc1ncnc2ccccc12)/c1ccccc1 | inconclusive: 25.1 µM [inhibitor, single point]
36 | Cn1c(=O)c2c(ncn2CC(=O)Nc2nc(-c3ccccc3Cl)cs2)n(C)c1=O | inconclusive: 0.231 µM [inhibitor, full curve, poor fit]
37 | Cc1ccnc(NC(=O)CNC(=O)c2ccc3c(c2)OCO3)c1 | inconclusive: 35.5 µM [activator, single point]
38 | O=C(CCN1CCOCC1)Nc1cc(C(=O)Nc2ccc(Cl)cc2)ccc1N1CC2CC(C1)c1cccc(=O)n1C2 (configuration not stated) | inconclusive: 3.98 µM [inhibitor, full curve, poor fit]
39 | CCCC(=O)Nc1nc(C)c(C(C)=O)s1 | inconclusive: 3.16 µM [activator, single point]
40 | CC(=O)N1C(=O)c2cccc3cccc(c23)C(=O)N1C(C)=O | inconclusive: 0.794 µM [inhibitor, full curve, poor fit]
41 | CCCN(c1ccc(C(C)C)cc1)S(=O)(=O)c1ccc2c(c1)oc(=O)n2CC(=O)OCC | inactive
42 | CCN1CCN(C(=O)c2cnn3c(C(F)F)cc(-c4ccc(C)cc4)nc23)CC1 | inconclusive: 29.1 µM [inhibitor, single point]
43 | c1cncc(-c2nnc(-c3cccs3)o2)c1 | inactive
44 | COc1nc(C)nc2c1sc1nc3c(cc12)COC(C)(C)C3 | inconclusive: 1.12 µM [activator, partial curve, poor fit]
45 | O=C1c2ccccc2C(=O)N1CCCc1nc2ccccc2c(=O)n1CCCn1ccnc1 | inactive
46 | COc1ccc(-c2cc(=O)oc3c(C)c(OC(=O)c4cccs4)ccc23)cc1 | inconclusive: 18.3 µM [inhibitor, partial curve]

Row | Compound | Potency
47 | Cc1ccnc(NCn2nnc3ccccc32)c1 | inactive
48 | O=C(COC(=O)c1ccc[nH]c1=O)NC1CCCCCC1 | inconclusive: 0.562 µM [activator, full curve, poor fit]
49 | CC(=O)N1CCc2c(sc3c2c(=O)n(CCc2ccccc2)c(=O)n3CC(=O)Nc2ccc(C)c(F)c2)C1 | inactive
50 | Fc1ccc(NC(=S)Nc2cccnc2)c(F)c1F | inactive
51 | O=C(CC1NCCc2ccccc21)Nc1ccc(Cl)cc1 (configuration not stated) | inconclusive: 35.5 µM [inhibitor, single point]
52 | CCc1ccc(C2CC(=O)c3c([nH]c(C(=O)OCCOc4ccccc4)c3C)C2)cc1 (configuration not stated) | inconclusive: 1.12 µM [inhibitor, full curve, poor fit]
53 | O=C([C@H](Cc1ccccc1)N1C(=O)c2ccccc2C1=O)N1CCOCC1 | inconclusive: 3.55 µM [activator, single point]
54 | Cc1ccccc1OCCn1c(C)nc2ccccc21 | inconclusive: 4.47 µM [inhibitor, full curve]
55 | Cc1ccccc1-c1nnc(-c2ccccc2)o1 | inconclusive: 0.631 µM [activator, partial curve]
56 | Cc1ccc(NC(=O)C(CC(C)C)NS(=O)(=O)c2ccc3c(c2)oc(=O)n3C)c(C)c1 (configuration not stated) | inactive
57 | CC(=O)c1c(C)[nH]c(C(=O)NCCc2ccccc2)c1C | inconclusive: 11.2 µM [inhibitor, single point]
58 | O=C(CSc1nc2ccccc2s1)Nc1ccc(N2CCOCC2)c(Cl)c1 | inactive
59 | Cc1ccn2c(Nc3ccc4c(c3)OCCO4)c(-c3cccs3)nc2c1 | inactive
60 | Cc1cccc(C)c1NC(=O)CN(C)C(=O)CCc1nc2sc3c(c2c(=O)[nH]1)CCCC3 | inconclusive: 0.316 µM [activator, partial curve, poor fit]
61 | Cc1cc(C)c2nc(N3CCCC(C(=O)NCCCN4CCOCC4)C3)sc2c1 (configuration not stated) | inconclusive: 29.1 µM [inhibitor, single point]
62 | COCc1ccc(C(=O)N2CCCC(Nc3ccc(C(C)C)cc3)C2)s1 (configuration not stated) | inconclusive: 35.5 µM [inhibitor, single point]
63 | CC(C)c1ccc(C2c3c(-c4ccccc4O)n[nH]c3C(=O)N2Cc2ccncc2)cc1 (configuration not stated) | inconclusive: 11.2 µM [inhibitor, partial curve, poor fit]
64 | COc1ccc(N(CC(=O)NCc2ccc(Cl)cc2)S(=O)(=O)c2ccccc2[N+](=O)[O-])c(OC)c1 | inconclusive: 11.6 µM [inhibitor, partial curve]
65 | C/C(=N\NC(=O)CNC(=O)c1ccncc1)c1ccc(C)cc1 | inconclusive: 35.5 µM [activator, single point]
66 | COc1cc2c(cc1OC)CN(Cc1ccccc1)CC2 | inconclusive: 6.31 µM [activator, single point]
67 | COc1cc(OC)cc(C(=O)NNC(=O)c2ccc3ccccc3n2)c1 | inconclusive: 35.5 µM [inhibitor, single point]

Two compounds picked at random from the list so far, as already listed:
Row | Compound | Potency
50 | Fc1ccc(NC(=S)Nc2cccnc2)c(F)c1F | inactive
60 | Cc1cccc(C)c1NC(=O)CN(C)C(=O)CCc1nc2sc3c(c2c(=O)[nH]1)CCCC3 | inconclusive: 0.316 µM [activator, partial curve, poor fit]
